Results taken from publication PMC11918387.
Results are given in words; binding and its absence hold for the method and conditions named. Binding seen in cells or lysates may run through a third protein. Here binding means that the protein was enriched with, or labelled near, the bait; the list need not be complete. Each block holds one binder with its values, some of them ahead of it.

Protein sequences, listed by entry. Tags and fused reporters are not part of them. Lines headed by an entry give the natural chain unless they say otherwise; changes in a name come on top.
UniProt Q09871: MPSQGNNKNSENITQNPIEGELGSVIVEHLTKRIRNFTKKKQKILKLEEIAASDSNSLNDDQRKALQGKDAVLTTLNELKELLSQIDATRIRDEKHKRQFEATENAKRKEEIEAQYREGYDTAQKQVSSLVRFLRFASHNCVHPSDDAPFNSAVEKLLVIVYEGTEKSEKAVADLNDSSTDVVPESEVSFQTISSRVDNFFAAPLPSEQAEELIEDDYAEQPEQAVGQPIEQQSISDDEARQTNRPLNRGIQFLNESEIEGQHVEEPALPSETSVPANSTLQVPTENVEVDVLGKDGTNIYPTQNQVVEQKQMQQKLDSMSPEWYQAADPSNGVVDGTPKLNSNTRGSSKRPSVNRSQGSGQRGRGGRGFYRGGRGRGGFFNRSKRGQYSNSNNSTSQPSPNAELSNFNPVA

Biological target: Cpn1-FLAG (fission yeast Caprin protein Cpn1, product of SPAC12G12.07c) (S. pombe) (UniProt Q09871)
Test: affinity purification with mass spectrometry; anti-FLAG immunoprecipitation (Protein G Dynabeads) of Cpn1-FLAG from S. pombe lysate; 50 mM HEPES-NaOH pH 7.5, 150 mM KCl, 0.1% NP-40; 90 min at 4°C; Benzonase treatment on beads; LC-MS/MS; untagged control strains; two independent experiments

binding: binds
B1: Ubp3 (protein, UniProt O94269 1-512)
chain: MRDLTSATDSASLESDSSRNQFIINSLLPWYSCSEHEFPHRKARKRRSPKNLDWSVSVQMPLVTSKTKESEKSPKSWSAIAKKHVQGDSPVKKSHSVPVPSDRSEKKSFNSSLGELIETYSPSLDAPRPIQPRGFINTGNICFMNSILQALMYCVPFYNLLKQINRMVPYNFERTTPLIESLTMLSRDFREYSEKFDLQGDSILPEVVYSATKGNPRFEMLQTGEQEDAEEFLNLFLDELHEEFVRERRHYLLKNDERNPKSDIKISNGIKSGLDSFDDQSSVEASGWTEVGKNKKPVIARSATVERSPISQIFGGQLRSTLRVPSARDSVLLEPFQPLQLDIQAEDIHSVIDALEHMTAPEILPEWHSSKGNVTATKQMYIESLPPVLILHLKRFFYEASGGTQKNYKPIAYPARLSIPQNVFSPSVRGSIHPEYDLNAVVYHHGTSASGGHYTVDVQQLDKSGWFRIDDTHIHRVPIHDVENSELSADPSLSKLGHGDRVAYLLFYTRRS

binding: binds
B2: Nxt3 (protein, UniProt O94260 1-434)
chain: MTAENATLLEPVLGKDEIGWMFVQEYYTYLNKEPNRLHCFYTKKSTLIHGDEGESISLCHGQQEIHNKILDLDFQNCKVLISNVDSLASSNGGIVIQVLGEMSNKGKLSRKFAQTFFLAEQPNGYFVLNDIFRFLREDVEEEEESPDAVEKEKKDVASEPYVNGVQSQEHLPSAKEEGHYQDPAATENNFATAALISNETDSLNQATLAVPEEPVIQVTEASVPSFVSQQENQLQDEALTSNSKNADAIGASDANVATAPKSWADLIARNHPDVKSQASVSSTASTTGQTVKGVNADQTQQPTAPYTQSNELLETSVFVKNIPPETSDVSLKSAMSIFGPVKAIEFARRKGTAYVDFVNHECVQLALNKKTLQINNATLNIEERRRLFSGKFNKSGDKKSNDNYNGMKRNFRKGNRGAFDGRSKEVTTSKKQNN
